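Primary screen of methionyl-tRNA synthetase; the read-out is not stated. Target: Methionyl-tRNA synthetase (putative), Leishmania donovani (UniProt E9BF75). The test concentration is not given. Values are per cent inhibition. Of about 68,000 compounds tested this way, about 24 (0.035%) reached 50% or more in at least one test.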

By UniProt entry, the sequences of proteins in these tests, tags left out.
UniProt E9BF75, entry or part of it: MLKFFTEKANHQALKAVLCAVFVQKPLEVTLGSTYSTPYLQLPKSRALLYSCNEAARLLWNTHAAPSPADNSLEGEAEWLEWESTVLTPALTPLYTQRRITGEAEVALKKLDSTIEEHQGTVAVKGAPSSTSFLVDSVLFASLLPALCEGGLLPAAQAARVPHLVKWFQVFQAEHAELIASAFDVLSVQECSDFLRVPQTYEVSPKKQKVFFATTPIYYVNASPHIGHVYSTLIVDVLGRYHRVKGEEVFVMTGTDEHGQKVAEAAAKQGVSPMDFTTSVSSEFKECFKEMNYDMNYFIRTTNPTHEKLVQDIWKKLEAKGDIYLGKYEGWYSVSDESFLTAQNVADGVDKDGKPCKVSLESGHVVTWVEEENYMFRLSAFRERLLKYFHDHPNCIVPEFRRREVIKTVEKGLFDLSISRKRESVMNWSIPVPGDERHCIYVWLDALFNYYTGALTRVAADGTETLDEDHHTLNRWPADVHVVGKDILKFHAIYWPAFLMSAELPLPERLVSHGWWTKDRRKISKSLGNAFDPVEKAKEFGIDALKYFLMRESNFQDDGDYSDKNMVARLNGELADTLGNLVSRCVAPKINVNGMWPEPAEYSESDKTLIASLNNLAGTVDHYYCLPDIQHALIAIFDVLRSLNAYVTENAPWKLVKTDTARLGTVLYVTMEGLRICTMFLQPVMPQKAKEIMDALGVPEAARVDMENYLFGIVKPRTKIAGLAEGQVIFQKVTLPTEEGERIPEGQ

Results are percentages, as filed. The controls that fix the scale are not given in the record; negative values are as filed. Compounds were drawn at random from those tested, without regard to their results.

{"smiles": "CC(NC(=O)N1CCC1)c1ccc(S(N)(=O)=O)cc1", "stereo": "configuration not stated", "inhibition": 8.683}
{"smiles": "CCn1cc(CN2CCC(O)(Cn3ccc4ncccc43)CC2)cn1", "inhibition": 19.79}
{"smiles": "COCC(=O)N1CCCN(c2ncnc3c2CCNCC3)CC1", "inhibition": 17.96}
{"smiles": "CCn1ccnc1C1CCN(Cc2c(F)cccc2F)CC1", "inhibition": 9.712}
{"smiles": "CCN1CCC(NC(=O)N(C)Cc2csc3ccccc23)CC1", "inhibition": 16.03}
{"smiles": "Cc1cc(NC(=O)N(CC2CCOC2)C2CC2)no1", "stereo": "configuration not stated", "inhibition": 16.78}
{"smiles": "O=C(Nc1ccccc1Cn1cccn1)N1CCCC(N2CCCC2)C1", "stereo": "configuration not stated", "inhibition": 5.943}
{"smiles": "Cc1ccc(F)cc1S(=O)(=O)Nc1cnc(N2CCCC2)nc1", "inhibition": 12.32}
{"smiles": "COc1cc2c(cc1OC)S(=O)(=O)N(Cc1cccc(C)c1)C2=O", "inhibition": 15.14}
{"smiles": "Cc1cnn(CCNCCCOc2ccc3c(c2)OCO3)c1", "inhibition": 13.77}
{"smiles": "O=C(CCc1ccsc1)N(Cc1ccccn1)C1CC1", "inhibition": 20.88}
{"smiles": "O=C(Cc1ccc2c(c1)CCC2)NCCNc1ncccn1", "inhibition": 5.512}
{"smiles": "CCOc1ccc(Cl)c(C(=O)N2CCN(CC(C)(C)O)CC2)n1", "inhibition": 16.81}
{"smiles": "CNc1ccc(CC2CCCN(C(=O)c3cnccn3)C2)nn1", "stereo": "configuration not stated", "inhibition": 4.941}
{"smiles": "N[C@H]1CN(S(=O)(=O)c2cccnc2)C[C@@H]1C1CC1", "inhibition": 12.85}
{"smiles": "Fc1cccc(N2CCCC3(CN(Cc4ccccn4)CCO3)C2)c1", "stereo": "configuration not stated", "inhibition": 12.8}
{"smiles": "COC(=O)N1CCc2ccccc2C1C(=O)NCc1ccccn1", "stereo": "configuration not stated", "inhibition": 7.194}
{"smiles": "CC(C)c1ncc2c(n1)CN(Cc1nc(Cc3ccccc3)no1)CC2", "inhibition": 16.83}
{"smiles": "CC(C)n1cnc(C2CN(C)c3ccc(C(=O)NCC4CC4)cc32)n1", "stereo": "configuration not stated", "inhibition": 7.092}
{"smiles": "O=C(Cn1c(-c2ccco2)cc2cccnc21)N1CCCC1", "inhibition": 22.96}
{"smiles": "CCN(CC)C(=O)CCc1nc(-c2cnn3c(C)cc(C)nc23)no1", "inhibition": 13.77}
{"smiles": "NC(=O)C(NC(=O)c1cc(Cl)c[nH]1)c1ccccc1", "stereo": "configuration not stated", "inhibition": 11.5}
{"smiles": "CC(C)Cc1cc(NC(=O)c2ccncc2)n(C)n1", "inhibition": 15.1}
{"smiles": "Cc1ccc(SC2CCCC2)c(C(=O)NCCO)c1", "inhibition": 16.06}
{"smiles": "CS(=O)(=O)Nc1ccn(Cc2ccc(F)cc2Cl)n1", "inhibition": 11.61}
{"smiles": "CCC1(O)CCCN(c2nc(-c3ccccn3)nc3c2c(C)nn3C)C1", "stereo": "configuration not stated", "inhibition": 9.719}
{"smiles": "COc1cc(CNCCNC(=O)c2ccc(O)cc2)ccc1SC", "inhibition": 17.13}
{"smiles": "c1c(CN2CCCC2)nc2n1CCNC2", "inhibition": 2.618}
{"smiles": "COCc1cc(CNC(=O)c2c(O)cccc2O)n[nH]1", "inhibition": 11.54}
{"smiles": "COc1ccc(CNC(=O)c2nn(C)c3c2CS(=O)(=O)CC3)cc1OC", "inhibition": 17.01}
{"smiles": "CS(=O)(=O)N1CCOCC2(CCN(c3ccccn3)C2)C1", "stereo": "configuration not stated", "inhibition": 12.97}
{"smiles": "Cc1ccc(CS(=O)(=O)N2Cc3c(CN(C)C)nn(C)c3C2)cc1", "inhibition": 18.18}
{"smiles": "CCc1nc2n(n1)CCCC2NC(=O)Nc1ccc(F)cc1C#N", "stereo": "configuration not stated", "inhibition": 10.22}
{"smiles": "Cn1cc(-c2cnc3n2CCC32CCN(S(C)(=O)=O)CC2)cn1", "inhibition": -1.049}
{"smiles": "Cc1cccc(CN2CC[C@@H]3[C@@H]2CCN3C(=O)c2ccoc2C)n1", "inhibition": 8.934}
{"smiles": "CCn1ccnc1CN1CCN(C(C)C(=O)NCC(F)(F)F)CC1", "stereo": "configuration not stated", "inhibition": 5.426}
{"smiles": "Cc1cc(NC(=O)NCCCSc2nncn2C)no1", "inhibition": 9.832}
{"smiles": "Cc1csc(C2CCCCN2C(=O)c2cc(C3CC3)[nH]n2)n1", "stereo": "configuration not stated", "inhibition": 17.05}
{"smiles": "c1cc(CNCc2ccc(-n3cncn3)nc2)cc(OC2CCCC2)c1", "inhibition": 24.37}
{"smiles": "CCCN1CC2(CCN(c3cc(C4CC4)ncn3)CC2)CC1C(=O)O", "stereo": "configuration not stated", "inhibition": 17.83}
{"smiles": "O=C(O)c1ccnc(SCC(F)(F)F)c1", "inhibition": 17.76}
{"smiles": "O=C(NCC1CCOC1)c1ccc(-c2ccccc2)[nH]c1=O", "stereo": "configuration not stated", "inhibition": 21.67}
{"smiles": "Cc1nc(-c2nnc[nH]2)sc1C(=O)N1CCCC1Cn1cccn1", "stereo": "configuration not stated", "inhibition": 4.693}
{"smiles": "CCS(=O)(=O)N1CCCCC1c1nc(C)no1", "stereo": "configuration not stated", "inhibition": 12.75}
{"smiles": "Cc1ccc(C(=O)N2CCC3(CC2)COCCN(S(C)(=O)=O)C3)cc1C", "inhibition": 10.62}
{"smiles": "CCc1noc(C)c1C(=O)NCc1cc[nH]n1", "inhibition": 13.66}
{"smiles": "O=C1CC(c2ccc(C(=O)O)cc2)c2ncn(-c3ccc(Cl)cc3)c2N1", "stereo": "configuration not stated", "inhibition": 10.65}
{"smiles": "COCCOc1cccc(CNCC2CN(C)CCO2)c1", "stereo": "configuration not stated", "inhibition": 10}
{"smiles": "c1ccc(-c2cnc(CN3CCCC3Cn3cncn3)o2)cc1", "stereo": "configuration not stated", "inhibition": 6.103}
{"smiles": "N#Cc1cccc(OCCN2CCCC2C(=O)NC2CC2)c1", "stereo": "configuration not stated", "inhibition": 4.972}
{"smiles": "COC(=O)CC(NC(=O)CCCn1cccn1)c1ccc(Cl)cc1", "stereo": "configuration not stated", "inhibition": 11.38}
{"smiles": "COc1cccc(C2CC(=O)Nc3nc(N)sc32)c1OC", "stereo": "configuration not stated", "inhibition": 4.225}
{"smiles": "Cc1cccc2sc(NC(=O)CN3CCCC(O)(CO)C3)nc12", "stereo": "configuration not stated", "inhibition": 1.818}
{"smiles": "Fc1cnc(N2CCCn3cnc(COc4cccnc4)c3C2)nc1", "inhibition": 16.39}

Source: ChEMBL document CHEMBL3988442, “University of Dundee, Small-Polar-MMV Screening Library” (2021).